# Assay results

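A panel of P. falciparum strains inside erythrocytes is exposed to compounds for three days, then a DNA-binding dye reports the amount of parasite DNA. Each compound was titrated across a series from about 0.000037 to 29 µM. The number is the fitted AC50, the concentration giving a half-maximal change in signal; a lower value means higher potency, whether the curve shows a decrease or an increase. Calls follow the curve class and fit quality: every row here is inconclusive, covering signal-raising curves and weak, poorly fitted, partial or highest-dose-only inhibition curves.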

Values are in nM. All entries here are filed as inconclusive. These entries are mostly ones the record files as inconclusive; other results of the assay are not listed here. Potencies fitted to partial, single-point or poorly fitting curves are rough. Some entries filed as inconclusive have a full curve.

compound	condition	potency (nM)	remark
C[S+](CC[C@H](N)C(=O)O)C[C@H]1O[C@@H](n2cnc3c(N)ncnc32)[C@H](O)[C@@H]1O (stereo partly specified)	P94_40	3548	inhibitor, single point
C[S+](CC[C@H](N)C(=O)O)C[C@H]1O[C@@H](n2cnc3c(N)ncnc32)[C@H](O)[C@@H]1O (stereo partly specified)	CP250	2239	inhibitor, single point
C[S+](CC[C@H](N)C(=O)O)C[C@H]1O[C@@H](n2cnc3c(N)ncnc32)[C@H](O)[C@@H]1O (stereo partly specified)	TAB165	3981	inhibitor, single point
C[S+](CC[C@H](N)C(=O)O)C[C@H]1O[C@@H](n2cnc3c(N)ncnc32)[C@H](O)[C@@H]1O (stereo partly specified)	ATS95	3981	inhibitor, single point
C[S+](CC[C@H](N)C(=O)O)C[C@H]1O[C@@H](n2cnc3c(N)ncnc32)[C@H](O)[C@@H]1O (stereo partly specified)	PAD	3162	inhibitor, single point
C[S+](CC[C@H](N)C(=O)O)C[C@H]1O[C@@H](n2cnc3c(N)ncnc32)[C@H](O)[C@@H]1O (stereo partly specified)	CP247	1412	inhibitor, single point
C[S+](CC[C@H](N)C(=O)O)C[C@H]1O[C@@H](n2cnc3c(N)ncnc32)[C@H](O)[C@@H]1O (stereo partly specified)	P93_24	3548	inhibitor, single point
CCN1CCN(c2cc3c(cc2F)c(=O)c(C(=O)O)cn3C2CC2)CC1	CP203	13459	inhibitor, single point
CCN1CCN(c2cc3c(cc2F)c(=O)c(C(=O)O)cn3C2CC2)CC1	CP335	13459	inhibitor, single point
CCN1CCN(c2cc3c(cc2F)c(=O)c(C(=O)O)cn3C2CC2)CC1	ICS	14125	inhibitor, single point
CCN1CCN(c2cc3c(cc2F)c(=O)c(C(=O)O)cn3C2CC2)CC1	7G8	17782	inhibitor, single point
CCN1CCN(c2cc3c(cc2F)c(=O)c(C(=O)O)cn3C2CC2)CC1	W2	13459	inhibitor, single point
CCN1CCN(c2cc3c(cc2F)c(=O)c(C(=O)O)cn3C2CC2)CC1	CP237	17782	inhibitor, single point
CCN1CCN(c2cc3c(cc2F)c(=O)c(C(=O)O)cn3C2CC2)CC1	FAB9	17782	inhibitor, single point
CCN1CCN(c2cc3c(cc2F)c(=O)c(C(=O)O)cn3C2CC2)CC1	CP260	8912	inhibitor, partial curve
CCN1CCN(c2cc3c(cc2F)c(=O)c(C(=O)O)cn3C2CC2)CC1	CP286	8912	inhibitor, single point
CCN1CCN(c2cc3c(cc2F)c(=O)c(C(=O)O)cn3C2CC2)CC1	CP305	7569	inhibitor, partial curve, poor fit
O=C1NCN(c2ccccc2)C12CCN(CCCOc1ccc(F)cc1)CC2	parasite line A	17782	inhibitor, single point
O=C1NCN(c2ccccc2)C12CCN(CCCOc1ccc(F)cc1)CC2	CP266	6746	inhibitor, partial curve
O=C1NCN(c2ccccc2)C12CCN(CCCOc1ccc(F)cc1)CC2	CP194	19011	inhibitor, single point
O=C1NCN(c2ccccc2)C12CCN(CCCOc1ccc(F)cc1)CC2	CP203	8492	inhibitor, partial curve
O=C1NCN(c2ccccc2)C12CCN(CCCOc1ccc(F)cc1)CC2	ICS	8912	inhibitor, partial curve, poor fit
O=C1NCN(c2ccccc2)C12CCN(CCCOc1ccc(F)cc1)CC2	CP185	316.2	inhibitor, full curve
O=C1NCN(c2ccccc2)C12CCN(CCCOc1ccc(F)cc1)CC2	CP325	10690	inhibitor, partial curve
O=C1NCN(c2ccccc2)C12CCN(CCCOc1ccc(F)cc1)CC2	CP265	15848	inhibitor, single point
O=C1NCN(c2ccccc2)C12CCN(CCCOc1ccc(F)cc1)CC2	AS120	10000	inhibitor, single point
O=C1NCN(c2ccccc2)C12CCN(CCCOc1ccc(F)cc1)CC2	ATS95	11220	inhibitor, single point
O=C1NCN(c2ccccc2)C12CCN(CCCOc1ccc(F)cc1)CC2	CP260	10000	inhibitor, single point
O=C1NCN(c2ccccc2)C12CCN(CCCOc1ccc(F)cc1)CC2	PC26	16944	inhibitor, single point
O=C1NCN(c2ccccc2)C12CCN(CCCOc1ccc(F)cc1)CC2	ATS189	8912	inhibitor, partial curve
O=C1NCN(c2ccccc2)C12CCN(CCCOc1ccc(F)cc1)CC2	CP305	11995	inhibitor, partial curve
O=C1NCN(c2ccccc2)C12CCN(CCCOc1ccc(F)cc1)CC2	C2A	10000	inhibitor, single point
O=C1NCN(c2ccccc2)C12CCN(CCCOc1ccc(F)cc1)CC2	CP268	9528	inhibitor, partial curve
O=C1NCN(c2ccccc2)C12CCN(CCCOc1ccc(F)cc1)CC2	CP291	5358	inhibitor, partial curve
O=C1NCN(c2ccccc2)C12CCN(CCCOc1ccc(F)cc1)CC2	CP250	17782	inhibitor, single point
O=C1NCN(c2ccccc2)C12CCN(CCCOc1ccc(F)cc1)CC2	CP247	891.3	inhibitor, full curve
O=C1NCN(c2ccccc2)C12CCN(CCCOc1ccc(F)cc1)CC2	PAD	12589	inhibitor, single point
O=C1NCN(c2ccccc2)C12CCN(CCCOc1ccc(F)cc1)CC2	CP269	9528	inhibitor, partial curve
O=C1NCN(c2ccccc2)C12CCN(CCCOc1ccc(F)cc1)CC2	CP217	10000	inhibitor, single point
O=C1NCN(c2ccccc2)C12CCN(CCCOc1ccc(F)cc1)CC2	N140	11220	inhibitor, single point
O=C1NCN(c2ccccc2)C12CCN(CCCOc1ccc(F)cc1)CC2	CP191	12589	inhibitor, single point
O=C1NCN(c2ccccc2)C12CCN(CCCOc1ccc(F)cc1)CC2	TAB113	11220	inhibitor, single point
O=C1NCN(c2ccccc2)C12CCN(CCCOc1ccc(F)cc1)CC2	CP211	6012	inhibitor, partial curve, poor fit
O=C1NCN(c2ccccc2)C12CCN(CCCOc1ccc(F)cc1)CC2	SC27B	11220	inhibitor, single point

Some entries from above, unchanged:

{"compound": "C[S+](CC[C@H](N)C(=O)O)C[C@H]1O[C@@H](n2cnc3c(N)ncnc32)[C@H](O)[C@@H]1O", "stereo": "stereo partly specified", "condition": "TAB165", "potency (nM)": "3981", "remark": "inhibitor, single point"}
{"compound": "CCN1CCN(c2cc3c(cc2F)c(=O)c(C(=O)O)cn3C2CC2)CC1", "condition": "CP335", "potency (nM)": "13459", "remark": "inhibitor, single point"}
{"compound": "O=C1NCN(c2ccccc2)C12CCN(CCCOc1ccc(F)cc1)CC2", "condition": "PC26", "potency (nM)": "16944", "remark": "inhibitor, single point"}
{"compound": "C[S+](CC[C@H](N)C(=O)O)C[C@H]1O[C@@H](n2cnc3c(N)ncnc32)[C@H](O)[C@@H]1O", "stereo": "stereo partly specified", "condition": "P94_40", "potency (nM)": "3548", "remark": "inhibitor, single point"}

The results are deposited in PubChem (AID504749; NCATS, 2011).